Results on one molecule are retold here after PMC10264414.

By UniProt entry, the sequences of proteins in these tests, tags left out.
UniProt P35222: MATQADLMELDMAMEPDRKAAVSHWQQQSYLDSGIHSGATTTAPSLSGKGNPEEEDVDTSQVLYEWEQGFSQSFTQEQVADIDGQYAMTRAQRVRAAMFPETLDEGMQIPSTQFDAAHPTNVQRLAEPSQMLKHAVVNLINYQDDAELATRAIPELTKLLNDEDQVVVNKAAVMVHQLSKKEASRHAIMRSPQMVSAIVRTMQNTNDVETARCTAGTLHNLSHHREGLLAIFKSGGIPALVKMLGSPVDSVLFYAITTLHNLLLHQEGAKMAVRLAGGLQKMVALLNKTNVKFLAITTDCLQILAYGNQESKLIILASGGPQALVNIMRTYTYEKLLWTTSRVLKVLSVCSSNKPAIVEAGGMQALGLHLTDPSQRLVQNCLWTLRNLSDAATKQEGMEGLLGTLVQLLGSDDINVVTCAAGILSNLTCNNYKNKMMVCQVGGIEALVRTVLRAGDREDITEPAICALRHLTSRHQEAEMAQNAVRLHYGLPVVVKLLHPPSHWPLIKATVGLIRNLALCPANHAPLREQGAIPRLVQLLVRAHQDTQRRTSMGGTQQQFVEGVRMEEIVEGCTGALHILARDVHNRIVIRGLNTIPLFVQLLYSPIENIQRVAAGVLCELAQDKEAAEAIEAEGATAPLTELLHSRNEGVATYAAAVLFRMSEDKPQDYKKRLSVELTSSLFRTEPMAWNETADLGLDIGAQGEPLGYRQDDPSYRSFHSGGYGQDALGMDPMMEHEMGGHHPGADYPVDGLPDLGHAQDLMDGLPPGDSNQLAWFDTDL

Results are given in words; binding and its absence hold for the method and conditions named. Binding seen in cells or lysates may run through a third protein. Some results given as binding are weak or reduced against the parent protein; the word gives no strength.

The experiment addresses β-catenin (endogenous) (human (endogenous in LM3)) (UniProt P35222). The experiment can be described thus: co-IP; endogenous proteins in LM3 cells, RIPA lysis buffer, antibody as indicated in the figure, protein A/G agarose beads, overnight at 4 °C.

B1: USP8 (endogenous) (enzyme, UniProt P40818 1-1118)
chain: MPAVASVPKELYLSSSLKDLNKKTEVKPEKISTKSYVHSALKIFKTAEECRLDRDEERAYVLYMKYVTVYNLIKKRPDFKQQQDYFHSILGPGNIKKAVEEAERLSESLKLRYEEAEVRKKLEEKDRQEEAQRLQQKRQETGREDGGTLAKGSLENVLDSKDKTQKSNGEKNEKCETKEKGAITAKELYTMMTDKNISLIIMDARRMQDYQDSCILHSLSVPEEAISPGVTASWIEAHLPDDSKDTWKKRGNVEYVVLLDWFSSAKDLQIGTTLRSLKDALFKWESKTVLRNEPLVLEGGYENWLLCYPQYTTNAKVTPPPRRQNEEVSISLDFTYPSLEESIPSKPAAQTPPASIEVDENIELISGQNERMGPLNISTPVEPVAASKSDVSPIIQPVPSIKNVPQIDRTKKPAVKLPEEHRIKSESTNHEQQSPQSGKVIPDRSTKPVVFSPTLMLTDEEKARIHAETALLMEKNKQEKELRERQQEEQKEKLRKEEQEQKAKKKQEAEENEITEKQQKAKEEMEKKESEQAKKEDKETSAKRGKEITGVKRQSKSEHETSDAKKSVEDRGKRCPTPEIQKKSTGDVPHTSVTGDSGSGKPFKIKGQPESGILRTGTFREDTDDTERNKAQREPLTRARSEEMGRIVPGLPSGWAKFLDPITGTFRYYHSPTNTVHMYPPEMAPSSAPPSTPPTHKAKPQIPAERDREPSKLKRSYSSPDITQAIQEEEKRKPTVTPTVNRENKPTCYPKAEISRLSASQIRNLNPVFGGSGPALTGLRNLGNTCYMNSILQCLCNAPHLADYFNRNCYQDDINRSNLLGHKGEVAEEFGIIMKALWTGQYRYISPKDFKITIGKINDQFAGYSQQDSQELLLFLMDGLHEDLNKADNRKRYKEENNDHLDDFKAAEHAWQKHKQLNESIIVALFQGQFKSTVQCLTCHKKSRTFEAFMYLSLPLASTSKCTLQDCLRLFSKEEKLTDNNRFYCSHCRARRDSLKKIEIWKLPPVLLVHLKRFSYDGRWKQKLQTSVDFPLENLDLSQYVIGPKNNLKKYNLFSVSNHYGGLDGGHYTAYCKNAARQRWFKFDDHEVSDISVSSVKSSAAYILFYTSLGPRVTDVAT
In the case of B1, the binding result is on record as “binds”.
